Source: PubChem BioAssay AID1259405 (NCATS, 2018)
Here is an unselected part of about 50,000 deposited reagents. About 4,000 of them (8%) count as active. 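Mouse siRNA library applied to hamster cells; one well for each siRNA.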 Unmarked entries are inactive. Reagents against one gene are numbered here. No sequences are given here.

Screen: 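Silenced genes that increase secreted GFP made by CHO cells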 (primary screen)
System: Chinese hamster CHO-K1 ovary cells with stable secreted eGFP expression
Reagent: single siRNA against mouse genes, 0.8 pmol siRNA per well (2 µl of 400 nM stock)
Time to read-out: 3 days
Read-out: 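Per-well intracellular GFP measured by laser scanning cytometry, plus viability from ATP luminescence, each relative to plate median of non-targeting control wells, in %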
Reading the numbers: GFP, % of control: higher = more GFP per well, higher productivity; viability (ATP), % of control: higher = more viable cells (more ATP)
Active means: 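Called active when intracellular GFP, relative to negative control, is at or above 120%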

With knock-down of Tescl #1 the results were GFP, % of control 79.6; viability (ATP), % of control 34.4. Tescl #2 scored GFP, % of control 61; viability (ATP), % of control 92. Knock-down of Tescl #3 resulted in: GFP, % of control 86.6; viability (ATP), % of control 74.5. Against Ctbp1 #1 the deposit lists GFP, % of control 23.2; viability (ATP), % of control 24.6. Depletion of Ctbp1 #2 gave: GFP, % of control 54.4; viability (ATP), % of control 66.2. With knock-down of Ctbp1 #3, the record shows GFP, % of control 86.5; viability (ATP), % of control 89.7.

Alg1 #1 gave GFP, % of control 152 (active); viability (ATP), % of control 112. Alg1 #2 showed GFP, % of control 70.8; viability (ATP), % of control 80.8. Silencing of Alg1 #3 gave: GFP, % of control 139 (active); viability (ATP), % of control 103. Zcchc17 #1 showed GFP, % of control 73.5; viability (ATP), % of control 75.6. Against Zcchc17 #2 the deposit lists GFP, % of control 118; viability (ATP), % of control 48.7. Against Zcchc17 #3, the values are GFP, % of control 46.8; viability (ATP), % of control 112.

Depletion of Or5p54 #1 resulted in: GFP, % of control 84.4; viability (ATP), % of control 82. Or5p54 #2 gave GFP, % of control 122 (active); viability (ATP), % of control 94. Against Or5p54 #3, the entry reads GFP, % of control 82.9; viability (ATP), % of control 76.7. Cryga #1 showed GFP, % of control 89.3; viability (ATP), % of control 70.8. Cryga #2 scored GFP, % of control 54.9; viability (ATP), % of control 59.2. With knock-down of Cryga #3 the results were GFP, % of control 128 (active); viability (ATP), % of control 117.

Copied from the entries so far (3 entries):
Alg1 #3 | GFP, % of control = 139 (active); viability (ATP), % of control = 103
Zcchc17 #1 | GFP, % of control = 73.5; viability (ATP), % of control = 75.6
Zcchc17 #2 | GFP, % of control = 118; viability (ATP), % of control = 48.7
